Laboratory results: PubChem BioAssay AID1259405 (NCATS, 2018)

Assay: 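Knock-downs that lift recombinant protein yield in hamster ovary cells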 (primary screen)
Cells: Chinese hamster CHO-K1 ovary cells with stable secreted eGFP expression
Reagents: single siRNA against mouse genes, 0.8 pmol siRNA per well (2 µl of 400 nM stock)
Duration: 3 days
Measurement: 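Percent of the per-plate non-targeting control median for intracellular GFP per well by laser scanning cytometry and for cell viability by ATP luminescence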
Scale: GFP, % of control: higher = more GFP per well, higher productivity; viability (ATP), % of control: higher = more viable cells (more ATP)
Hit rule: 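Called active when intracellular GFP, relative to negative control, is at or above 120%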
Here is a random part of about 50,000 reagents. About 4,000 of them (8%) were called active. 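Mouse siRNA library applied to hamster cells; one well for each siRNA.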 Reagents against one gene are numbered here.

With knock-down of Gfi1 (growth factor independent 1 transcription repressor) #1, the record shows GFP, % of control 78.6; viability (ATP), % of control 70; inactive.
Against Gfi1 (growth factor independent 1 transcription repressor) #2, the values are GFP, % of control 71.6; viability (ATP), % of control 60.3; inactive.
For Oas1f (2'-5' oligoadenylate synthetase 1F) #1, the values are GFP, % of control 142; viability (ATP), % of control 132; active.
Oas1f (2'-5' oligoadenylate synthetase 1F) #2 scored GFP, % of control 78.8; viability (ATP), % of control 76.9; inactive.
Silencing of Oas1f (2'-5' oligoadenylate synthetase 1F) #3 resulted in: GFP, % of control 40.5; viability (ATP), % of control 53.4; inactive.
Dagla (diacylglycerol lipase, alpha) #1 showed GFP, % of control 77.5; viability (ATP), % of control 60.8; inactive.
For Dagla (diacylglycerol lipase, alpha) #2 the deposit lists GFP, % of control 139; viability (ATP), % of control 64; active.
Dagla (diacylglycerol lipase, alpha) #3 gave GFP, % of control 57.4; viability (ATP), % of control 61.4; inactive.
Silencing of Dynlt5 (dynein light chain Tctex-type 5) #1 came out at: GFP, % of control 84.9; viability (ATP), % of control 91.3; inactive.
Silencing of Dynlt5 (dynein light chain Tctex-type 5) #2 gave: GFP, % of control 58.4; viability (ATP), % of control 59.8; inactive.
Depletion of Dynlt5 (dynein light chain Tctex-type 5) #3 came out at: GFP, % of control 81; viability (ATP), % of control 77.3; inactive.
Silencing of Cops2 (COP9 signalosome subunit 2) #1 resulted in: GFP, % of control 80.2; viability (ATP), % of control 80.5; inactive.
Cops2 (COP9 signalosome subunit 2) #2 scored GFP, % of control 96.7; viability (ATP), % of control 77; inactive.
Cops2 (COP9 signalosome subunit 2) #3 gave GFP, % of control 90.3; viability (ATP), % of control 101; inactive.
Silencing of Nobox (NOBOX oogenesis homeobox) #1 resulted in: GFP, % of control 132; viability (ATP), % of control 124; active.
Nobox (NOBOX oogenesis homeobox) #2 scored GFP, % of control 46.8; viability (ATP), % of control 56; inactive.

Looked up above:
Cops2 (COP9 signalosome subunit 2) #1, viability (ATP), % of control: 80.5
Under “viability (ATP), % of control”, Dynlt5 (dynein light chain Tctex-type 5) #2 reads 59.8
